Record: PubChem BioAssay AID1259283 (Sanger Institute, 2017)
The whole screen tested 794 reagents; shown is a random part of them. 14 of them (1.8%) count as active. 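Calls reflect only viability loss without drug; drug synergy does not enter the call.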 No viability above 1 is reported: the scale is capped. Not all columns of the deposit are shown. Not stated in the record: the amount of reagent, the time to read-out.

- Aim: 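Kinases needed for HT115 growth and partners for drug synergy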 (primary screen)
- Cell system: HT115 colorectal cancer cells
- Knock-down reagent: siRNA pool against human genes
- Treatment: anchor drug given one day after siRNA: BYL719 at 1 µM, cetuximab at 5 µg/ml, trametinib at 10 nM, or DMSO vehicle alone
- Detection: 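Viability normalised to non-targeting pool #2 wells and averaged over replicates, robust z-score against control wells, and a synergy score for each of three drugs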
- Direction: robust z-score, knock-down alone: higher = more viable cells after knock-down; viability, DMSO vs non-targeting control: higher = more viable cells
- Units: viability, DMSO vs non-targeting control in fraction of control
- Active means: 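a gene counts as essential when its robust z-score with knock-down alone is below -3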
- Calls: active = essential (z below -3, no drug); inactive = no change without drug

CTNNB1 (GeneID 1499): robust z-score, knock-down alone = 0.789; viability, DMSO vs non-targeting control = 1; outcome = inactive
WHR1 (GeneID 8859): robust z-score, knock-down alone = 0.75; viability, DMSO vs non-targeting control = 0.996; outcome = inactive
IP6K1 (GeneID 9807): robust z-score, knock-down alone = 0.789; viability, DMSO vs non-targeting control = 1; outcome = inactive
AXIN2 (GeneID 8313): robust z-score, knock-down alone = 0.133; viability, DMSO vs non-targeting control = 0.939; outcome = inactive
TGFBR3 (GeneID 7049): robust z-score, knock-down alone = 0.789; viability, DMSO vs non-targeting control = 1; outcome = inactive
CDKN2C (GeneID 1031): robust z-score, knock-down alone = -2.1; viability, DMSO vs non-targeting control = 0.733; outcome = inactive
POLR2B (GeneID 5431): robust z-score, knock-down alone = -4.31; viability, DMSO vs non-targeting control = 0.529; outcome = active
NUP107 (GeneID 57122): robust z-score, knock-down alone = -1.96; viability, DMSO vs non-targeting control = 0.746; outcome = inactive
TESK2 (GeneID 10420): robust z-score, knock-down alone = 0.789; viability, DMSO vs non-targeting control = 1; outcome = inactive
IP6K2 (GeneID 51447): robust z-score, knock-down alone = -3.27; viability, DMSO vs non-targeting control = 0.625; outcome = active
GSK3A (GeneID 2931): robust z-score, knock-down alone = 0.515; viability, DMSO vs non-targeting control = 0.975; outcome = inactive
PRAG1 (GeneID 157285): robust z-score, knock-down alone = -1.58; viability, DMSO vs non-targeting control = 0.781; outcome = inactive
DNMT3A (GeneID 1788): robust z-score, knock-down alone = -3.25; viability, DMSO vs non-targeting control = 0.627; outcome = active
MAPKAPK3 (GeneID 7867): robust z-score, knock-down alone = -1.57; viability, DMSO vs non-targeting control = 0.782; outcome = inactive
TNIK (GeneID 23043): robust z-score, knock-down alone = -0.276; viability, DMSO vs non-targeting control = 0.902; outcome = inactive
BCR (GeneID 613): robust z-score, knock-down alone = -1.82; viability, DMSO vs non-targeting control = 0.759; outcome = inactive

The list goes on; the last 2 above are carried over.
TNIK (GeneID 23043): robust z-score, knock-down alone = -0.276; viability, DMSO vs non-targeting control = 0.902; outcome = inactive
BCR (GeneID 613): robust z-score, knock-down alone = -1.82; viability, DMSO vs non-targeting control = 0.759; outcome = inactive
CHD9 (GeneID 80205): robust z-score, knock-down alone = -0.64; viability, DMSO vs non-targeting control = 0.868; outcome = inactive
MST1R (GeneID 4486): robust z-score, knock-down alone = 0.737; viability, DMSO vs non-targeting control = 0.995; outcome = inactive
GRK4 (GeneID 2868): robust z-score, knock-down alone = 0.186; viability, DMSO vs non-targeting control = 0.944; outcome = inactive
TESK1 (GeneID 7016): robust z-score, knock-down alone = -0.731; viability, DMSO vs non-targeting control = 0.86; outcome = inactive
MUSK (GeneID 4593): robust z-score, knock-down alone = -2.74; viability, DMSO vs non-targeting control = 0.674; outcome = inactive
RBKS (GeneID 64080): robust z-score, knock-down alone = 0.713; viability, DMSO vs non-targeting control = 0.993; outcome = inactive
MAST2 (GeneID 23139): robust z-score, knock-down alone = 0.789; viability, DMSO vs non-targeting control = 1; outcome = inactive
FGFRL1 (GeneID 53834): robust z-score, knock-down alone = -0.464; viability, DMSO vs non-targeting control = 0.884; outcome = inactive
MAP3K2 (GeneID 10746): robust z-score, knock-down alone = 0.789; viability, DMSO vs non-targeting control = 1; outcome = inactive
FRK (GeneID 2444): robust z-score, knock-down alone = 0.789; viability, DMSO vs non-targeting control = 1; outcome = inactive
MAP3K19 (GeneID 80122): robust z-score, knock-down alone = -0.767; viability, DMSO vs non-targeting control = 0.856; outcome = inactive
PDGFRL (GeneID 5157): robust z-score, knock-down alone = 0.161; viability, DMSO vs non-targeting control = 0.942; outcome = inactive
DSTYK (GeneID 25778): robust z-score, knock-down alone = 0.789; viability, DMSO vs non-targeting control = 1; outcome = inactive
PANK1 (GeneID 53354): robust z-score, knock-down alone = 0.789; viability, DMSO vs non-targeting control = 1; outcome = inactive
BMPR1B (GeneID 658): robust z-score, knock-down alone = 0.598; viability, DMSO vs non-targeting control = 0.982; outcome = inactive
CSNK1G3 (GeneID 1456): robust z-score, knock-down alone = 0.789; viability, DMSO vs non-targeting control = 1; outcome = inactive
ITSN1 (GeneID 6453): robust z-score, knock-down alone = 0.0012; viability, DMSO vs non-targeting control = 0.927; outcome = inactive
PRKAB2 (GeneID 5565): robust z-score, knock-down alone = -0.106; viability, DMSO vs non-targeting control = 0.917; outcome = inactive
JAK3 (GeneID 3718): robust z-score, knock-down alone = 0.789; viability, DMSO vs non-targeting control = 1; outcome = inactive
PIK3R3 (GeneID 8503): robust z-score, knock-down alone = 0.789; viability, DMSO vs non-targeting control = 1; outcome = inactive
